# Experimental data taken from PubChem BioAssay AID651845 (Broad Institute, 2012).
# Inconclusive means that the source gave no clear call. Such entries were picked first, then a sample of the others. Active and inactive are the calls of the source.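 Rule for the calls: active = every replicate test called active, with signal dropping and a potency found within twice the top tested dose; inconclusive = replicate test calls disagree with each other; inactive = all replicate tests inactive, including signal rising.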
# Test: growth inhibition of intracellular T. cruzi, dose response, cell-based, plate reader, dry powder samples (AID 651845)
# Details: T. cruzi beta-gal in NIH3T3, GalScreen luminescence, 90 h; at 16 µM (top of the series)
row,SMILES,"activity change, negative = inhibition"
1,C[C@@H]1CN([C@@H](C)CO)C(=O)c2cccc(NC(=O)c3ccncc3)c2O[C@H]1CN(C)Cc1ccc(C(F)(F)F)cc1,inconclusive: -69.5%
2,CC(C)N1C[C@H](C)[C@@H](CN(C)C(=O)OC(C)(C)C)Oc2c(C(=O)Nc3ccncc3)cccc2C1=O,inconclusive: -75.3%
3,C[C@@H]1CN([C@@H](C)CO)C(=O)c2cccc(NC(=O)c3ccncc3)c2O[C@H]1CN(C)Cc1ccc(Cl)cc1,inconclusive: -75.7%
4,C[C@@H]1CN([C@@H](C)CO)C(=O)c2cccc(NC(=O)c3ccncc3)c2O[C@H]1CN(C)Cc1ccncc1,inconclusive: -25.8%
5,CC(C)N1C[C@H](C)[C@@H](CN(C)Cc2ccc(Oc3ccccc3)cc2)Oc2c(NC(=O)c3cccnc3)cccc2C1=O,inconclusive: -105%
6,C[C@H]1CN([C@@H](C)CO)C(=O)c2cccc(NC(=O)c3ccncc3)c2O[C@@H]1CN(C)Cc1ccc(C(=O)O)cc1,inconclusive: -29.5%
7,CC(C)N1C[C@H](C)[C@@H](CN(C)C(=O)OC(C)(C)C)Oc2c(NC(=O)c3ccccc3)cccc2C1=O,inconclusive: -76.9%
8,CC(C)N(C)C(=O)c1cccc(NC(=O)c2ccncc2)c1OCCCN(C)Cc1ccc(Cl)cc1,inconclusive: -136%
9,C[C@@H]1CN([C@@H](C)CO)C(=O)c2cccc(NC(=O)c3ccncc3)c2O[C@H]1CN(C)Cc1ccc(-c2ccccc2)cc1,inconclusive: -67.2%
10,CC(C)N1C[C@H](C)[C@@H](CN(C)Cc2ccc(Oc3ccccc3)cc2)Oc2c(NC(=O)C3CCN(C)CC3)cccc2C1=O,inconclusive: -74.8%
11,CC(C)N1C[C@H](C)[C@@H](CN(C)CC2CCOCC2)Oc2c(NC(=O)c3ccncc3)cccc2C1=O,inconclusive: -108%
12,CNC[C@@H]1Oc2c(NC(=O)c3ccncc3)cccc2C(=O)N(C(C)C)C[C@H]1C,inactive: -14%
13,CC(C)N1C[C@H](C)[C@@H](CN(C)C(=O)OC(C)(C)C)Oc2c(NC(=O)c3ccncc3)cccc2C1=O,inconclusive: -72.5%
14,CC(C)N1C[C@H](C)[C@@H](CN(C)C(=O)OC(C)(C)C)Oc2c(NC(=O)c3ccccn3)cccc2C1=O,inconclusive: -101%
15,C[C@H]1CN([C@@H](C)CO)C(=O)c2cccc(NC(=O)c3ccncc3)c2O[C@@H]1CN(C)Cc1ccc2c(c1)OCO2,inconclusive: -64.3%
16,CC(C)N1C[C@H](C)[C@@H](CN(C)C(=O)OC(C)(C)C)Oc2c(NC(=O)c3cccnc3)cccc2C1=O,inconclusive: -48.5%
17,CC(C)N1C[C@H](C)[C@@H](CN(C)Cc2ccc(Cl)cc2)Oc2c(NC(=O)c3ccncc3)cccc2C1=O,inconclusive: -103%
18,CC(C)N(C)C(=O)c1cccc(NC(=O)c2ccncc2)c1OCCCN(C)C(=O)OC(C)(C)C,inconclusive: -99.9%
19,C[C@H]1CN([C@@H](C)CO)C(=O)c2cccc(NC(=O)c3ccncc3)c2O[C@@H]1CN(C)Cc1ccc(Cl)c(Cl)c1,inconclusive: -84.3%
20,C[C@@H]1CN([C@@H](C)CO)C(=O)c2cccc(NC(=O)c3ccncc3)c2O[C@H]1CN(C)Cc1ccc(Oc2ccccc2)cc1,inconclusive: -79.3%
21,C[C@H]1CN([C@@H](C)CO)C(=O)c2cccc(NC(=O)c3ccncc3)c2O[C@@H]1CN(C)Cc1ccncc1,inconclusive: -71.8%
22,CNC[C@H]1Oc2c(NC(=O)c3ccccc3)cccc2C(=O)N(C(C)C)C[C@@H]1C,inconclusive: -26.8%
23,CC(C)N1C[C@H](C)[C@@H](CN(C)Cc2ccc(Oc3ccccc3)cc2)Oc2c(NC(=O)c3ccccn3)cccc2C1=O,inconclusive: -114%
24,C[C@@H]1CN([C@@H](C)CO)C(=O)c2cccc(NC(=O)c3ccncc3)c2O[C@H]1CN(C)Cc1ccccc1,inconclusive: -51.5%
25,CC(C)N1C[C@H](C)[C@@H](CN(C)C(=O)OC(C)(C)C)Oc2c(C(=O)O)cccc2C1=O,inactive: -18.2%
26,C[C@H]1CN([C@@H](C)CO)C(=O)c2cccc(NC(=O)c3ccncc3)c2O[C@@H]1CN(C)Cc1ccc(C(=O)Nc2ccccc2N)cc1,inconclusive: -18.8%
27,C[C@@H]1CN([C@@H](C)CO)C(=O)c2cccc(NC(=O)c3ccncc3)c2O[C@H]1CN(C)Cc1ccc(C(=O)O)cc1,inconclusive: 0.534%

# Grouped by structure: those above containing a tert-butyl group (seven)
row,SMILES,"activity change, negative = inhibition"
2,CC(C)N1C[C@H](C)[C@@H](CN(C)C(=O)OC(C)(C)C)Oc2c(C(=O)Nc3ccncc3)cccc2C1=O,inconclusive: -75.3%
7,CC(C)N1C[C@H](C)[C@@H](CN(C)C(=O)OC(C)(C)C)Oc2c(NC(=O)c3ccccc3)cccc2C1=O,inconclusive: -76.9%
13,CC(C)N1C[C@H](C)[C@@H](CN(C)C(=O)OC(C)(C)C)Oc2c(NC(=O)c3ccncc3)cccc2C1=O,inconclusive: -72.5%
14,CC(C)N1C[C@H](C)[C@@H](CN(C)C(=O)OC(C)(C)C)Oc2c(NC(=O)c3ccccn3)cccc2C1=O,inconclusive: -101%
16,CC(C)N1C[C@H](C)[C@@H](CN(C)C(=O)OC(C)(C)C)Oc2c(NC(=O)c3cccnc3)cccc2C1=O,inconclusive: -48.5%
18,CC(C)N(C)C(=O)c1cccc(NC(=O)c2ccncc2)c1OCCCN(C)C(=O)OC(C)(C)C,inconclusive: -99.9%
25,CC(C)N1C[C@H](C)[C@@H](CN(C)C(=O)OC(C)(C)C)Oc2c(C(=O)O)cccc2C1=O,inactive: -18.2%
